# Test results: US20250026769A1, “PAPD5 INHIBITORS AND METHODS OF USE THEREOF” (The Children's Medical Center Corporation, priority 2021, published 2025)
# By UniProt entry, the sequences of proteins in these tests, tags left out. Residues count along the entry.
# UniProt Q8NDF8, 68-698 isoform Q8NDF8-5 limits assumed: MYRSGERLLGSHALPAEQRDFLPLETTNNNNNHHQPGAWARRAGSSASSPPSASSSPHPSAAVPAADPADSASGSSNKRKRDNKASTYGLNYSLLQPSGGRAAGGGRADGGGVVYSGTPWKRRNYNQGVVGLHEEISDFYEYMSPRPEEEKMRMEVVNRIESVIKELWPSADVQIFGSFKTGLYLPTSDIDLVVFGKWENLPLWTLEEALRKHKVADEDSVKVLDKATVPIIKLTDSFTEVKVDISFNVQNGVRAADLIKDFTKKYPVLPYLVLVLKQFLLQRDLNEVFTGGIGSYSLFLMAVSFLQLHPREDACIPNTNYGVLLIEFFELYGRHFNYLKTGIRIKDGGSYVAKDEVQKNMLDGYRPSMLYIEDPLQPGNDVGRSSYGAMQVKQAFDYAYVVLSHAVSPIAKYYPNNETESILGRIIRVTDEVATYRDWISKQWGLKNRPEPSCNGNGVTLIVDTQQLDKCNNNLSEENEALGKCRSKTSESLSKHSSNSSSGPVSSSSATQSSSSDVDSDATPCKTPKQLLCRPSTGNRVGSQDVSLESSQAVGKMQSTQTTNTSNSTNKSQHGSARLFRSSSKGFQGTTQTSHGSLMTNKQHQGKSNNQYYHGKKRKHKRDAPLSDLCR
# At least one structure is not confirmed: it was looked up by name or label, or the drawing left a doubt.
# Target: T1, Recombinant PAPD5 (rPAPD5) (Homo sapiens, UniProt Q8NDF8)
# T1 construct: made in house
# Experiment: in vitro RNA oligo-adenylation (polyadenylation) assay with recombinant PAPD5
# Assay type: biochemical
smiles,measurement,setting,value
"O=C(O)c1cc(Cl)ccc1Nc1c(S(=O)(=O)N2CCOCC2)cnc2ccc(Cl)cc12 [Compound 266A, 5-chloro-2-[(6-chloro-3-morpholinosulfonyl-4-quinolyl)amino]benzoic acid]",potency in RNA oligo-adenylation assay (FIG. 7),compared to Cmpd. 1 and RG7834,improved potency compared to Cmpd. 1 and RG7834
same,"activity in the in vitro RNA oligoadenylation assay, higher compared to the parental compound cmpd. 1","relative to cmpd. 1, approximating the activity of RG7834 (FIG. 7)",~2 logs
